Reference: publication doi:10.1101/2025.09.20.677505
These are yes or no findings as the source states them, for the method shown. In cells and extracts the contact can be indirect. A yes stands for co-enrichment or nearness to the bait. Other partners may have been found.

Protein sequences, listed by entry. Tags and fused reporters are not part of them.
UniProt O95817: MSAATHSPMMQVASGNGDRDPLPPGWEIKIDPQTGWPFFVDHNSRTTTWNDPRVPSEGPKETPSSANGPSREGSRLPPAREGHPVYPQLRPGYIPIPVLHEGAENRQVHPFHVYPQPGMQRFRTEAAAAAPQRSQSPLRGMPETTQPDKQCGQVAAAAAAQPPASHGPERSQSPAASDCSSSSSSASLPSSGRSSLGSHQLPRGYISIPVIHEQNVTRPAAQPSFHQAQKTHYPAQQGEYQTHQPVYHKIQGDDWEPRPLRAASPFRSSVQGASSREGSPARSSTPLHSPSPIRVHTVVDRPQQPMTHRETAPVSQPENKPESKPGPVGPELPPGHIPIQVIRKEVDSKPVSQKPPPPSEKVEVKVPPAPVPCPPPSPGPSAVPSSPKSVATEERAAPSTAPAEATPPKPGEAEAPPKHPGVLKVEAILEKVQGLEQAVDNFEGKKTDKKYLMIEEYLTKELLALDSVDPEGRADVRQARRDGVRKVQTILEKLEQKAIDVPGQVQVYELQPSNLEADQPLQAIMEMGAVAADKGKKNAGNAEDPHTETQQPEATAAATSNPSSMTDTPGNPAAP
UniProt Q16401: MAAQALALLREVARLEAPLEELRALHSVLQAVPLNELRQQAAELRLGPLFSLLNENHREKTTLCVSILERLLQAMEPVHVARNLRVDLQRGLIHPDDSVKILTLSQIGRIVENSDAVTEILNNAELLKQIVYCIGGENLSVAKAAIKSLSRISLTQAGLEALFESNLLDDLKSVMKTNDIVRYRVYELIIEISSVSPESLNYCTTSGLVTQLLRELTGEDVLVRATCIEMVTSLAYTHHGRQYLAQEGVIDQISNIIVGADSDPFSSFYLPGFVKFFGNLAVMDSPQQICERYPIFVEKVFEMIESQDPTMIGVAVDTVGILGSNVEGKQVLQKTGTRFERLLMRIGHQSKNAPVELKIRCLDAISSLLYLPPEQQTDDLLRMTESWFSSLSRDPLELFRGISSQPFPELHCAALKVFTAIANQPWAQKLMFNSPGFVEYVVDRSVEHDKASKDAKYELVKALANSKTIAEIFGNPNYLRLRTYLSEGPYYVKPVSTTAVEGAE

B1: PSMF1, proteasome regulator, endogenous in iPSC-derived astrocytes (protein, UniProt Q92530 1-271)
chain: MAGLEVLFASAAPAITCRQDALVCFLHWEVVTHGYFGLGVGDQPGPNDKKSELLPAGWNNNKDLYVLRYEYKDGSRKLLVKAITVESSMILNVLEYGSQQVADLTLNLDDYIDAEHLGDFHRTYKNSEELRSRIVSGIITPIHEQWEKANVSSPHREFPPATAREVDPLRIPPHHPHTSRQPPWCDPLGPFVVGGEDLDPFGPRRGGMIVDPLRSGFPRALIDPSSGLPNRLPPGAVPPGARFDPFGPIGTSPPGPNPDHLPPPGYDDMYL
B2: HSPB8, endogenous in iPSC-derived astrocytes (protein, UniProt Q9UJY1 1-196)
chain: MADGQMPFSCHYPSRLRRDPFRDSPLSSRLLDDGFGMDPFPDDLTASWPDWALPRLSSAWPGTLRSGMVPRGPTATARFGVPAEGRTPPPFPGEPWKVCVNVHSFKPEELMVKTKDGYVEVSGKHEEKQQEGGIVSKNFTKKIQLPAEVDPVTVFASLSPEGLLIIEAPQVPPYSTFGESSFNNELPQDSQEVTCT

molecular target: Bcl-2-associated athanogene 3 (BAG3), endogenous in iPSC-derived astrocytes (human (endogenous in iPSC-derived astrocytes)) (UniProt O95817); assay: affinity purification with mass spectrometry

Row | binding | Molecule
1 | binds | PSMD5, proteasome regulator, endogenous in iPSC-derived astrocytes (from UniProt Q16401 1-504)
2 | binds | B1
3 | binds | B2
